# Results reported in the supplement of paper PMC10849652.
# Protein sequences, listed by entry. Tags and fused reporters are not part of them. Lines headed by an entry give the natural chain unless they say otherwise; changes in a name come on top.
# UniProt Q5JWF2, whole entry, looked up: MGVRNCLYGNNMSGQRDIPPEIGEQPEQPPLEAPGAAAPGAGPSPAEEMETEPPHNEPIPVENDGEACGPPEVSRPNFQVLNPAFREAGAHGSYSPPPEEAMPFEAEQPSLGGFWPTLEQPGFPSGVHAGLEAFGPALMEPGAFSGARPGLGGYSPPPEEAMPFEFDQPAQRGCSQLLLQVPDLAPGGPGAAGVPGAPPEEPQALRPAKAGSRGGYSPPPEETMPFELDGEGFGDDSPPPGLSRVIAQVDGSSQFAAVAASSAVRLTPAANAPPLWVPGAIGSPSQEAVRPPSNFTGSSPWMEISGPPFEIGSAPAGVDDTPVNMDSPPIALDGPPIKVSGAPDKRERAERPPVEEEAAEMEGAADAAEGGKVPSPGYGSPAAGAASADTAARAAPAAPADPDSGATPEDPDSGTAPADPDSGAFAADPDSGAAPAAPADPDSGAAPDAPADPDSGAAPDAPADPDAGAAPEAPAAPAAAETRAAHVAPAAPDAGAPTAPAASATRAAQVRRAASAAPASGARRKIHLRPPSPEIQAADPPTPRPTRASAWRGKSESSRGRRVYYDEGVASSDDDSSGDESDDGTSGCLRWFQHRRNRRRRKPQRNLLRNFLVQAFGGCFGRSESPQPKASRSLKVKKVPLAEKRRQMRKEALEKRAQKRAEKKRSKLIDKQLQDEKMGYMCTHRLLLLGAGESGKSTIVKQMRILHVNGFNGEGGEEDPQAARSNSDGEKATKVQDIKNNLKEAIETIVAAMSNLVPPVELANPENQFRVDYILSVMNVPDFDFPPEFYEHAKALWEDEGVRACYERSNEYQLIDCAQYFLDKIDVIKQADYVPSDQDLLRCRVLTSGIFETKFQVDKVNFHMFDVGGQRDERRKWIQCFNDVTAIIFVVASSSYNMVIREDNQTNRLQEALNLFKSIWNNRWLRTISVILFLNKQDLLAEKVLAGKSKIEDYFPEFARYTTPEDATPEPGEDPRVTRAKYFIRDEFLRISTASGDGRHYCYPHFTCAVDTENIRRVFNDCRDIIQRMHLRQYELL
# UniProt Q9UKD1: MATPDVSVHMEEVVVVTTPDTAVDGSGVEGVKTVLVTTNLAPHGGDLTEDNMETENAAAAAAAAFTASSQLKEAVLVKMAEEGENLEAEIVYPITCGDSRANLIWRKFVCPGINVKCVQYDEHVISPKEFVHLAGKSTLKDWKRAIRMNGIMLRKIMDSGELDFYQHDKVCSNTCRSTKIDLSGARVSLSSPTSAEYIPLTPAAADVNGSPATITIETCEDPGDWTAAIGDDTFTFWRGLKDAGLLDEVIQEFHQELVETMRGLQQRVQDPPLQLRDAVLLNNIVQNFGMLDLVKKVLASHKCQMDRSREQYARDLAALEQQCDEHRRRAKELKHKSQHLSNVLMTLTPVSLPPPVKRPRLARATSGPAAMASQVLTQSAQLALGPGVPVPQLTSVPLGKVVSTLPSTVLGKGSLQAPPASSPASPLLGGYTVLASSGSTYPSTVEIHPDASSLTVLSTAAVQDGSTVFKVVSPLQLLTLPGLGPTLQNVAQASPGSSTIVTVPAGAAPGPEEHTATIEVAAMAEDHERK
# UniProt P49448: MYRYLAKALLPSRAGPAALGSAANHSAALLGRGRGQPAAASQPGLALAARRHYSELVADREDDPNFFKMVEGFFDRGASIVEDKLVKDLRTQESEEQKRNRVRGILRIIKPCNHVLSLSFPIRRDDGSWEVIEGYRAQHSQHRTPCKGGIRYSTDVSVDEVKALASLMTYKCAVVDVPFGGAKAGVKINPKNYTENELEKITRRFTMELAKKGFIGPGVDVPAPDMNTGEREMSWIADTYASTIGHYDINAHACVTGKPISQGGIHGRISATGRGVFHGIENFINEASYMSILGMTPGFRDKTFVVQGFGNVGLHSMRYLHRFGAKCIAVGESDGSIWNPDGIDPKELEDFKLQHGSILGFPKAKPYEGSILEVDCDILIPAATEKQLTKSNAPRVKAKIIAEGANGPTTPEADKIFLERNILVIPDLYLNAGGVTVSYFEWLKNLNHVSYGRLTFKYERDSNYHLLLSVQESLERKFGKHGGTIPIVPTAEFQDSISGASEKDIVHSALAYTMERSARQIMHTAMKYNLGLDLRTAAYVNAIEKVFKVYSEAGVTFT
# UniProt P62879, whole entry, looked up: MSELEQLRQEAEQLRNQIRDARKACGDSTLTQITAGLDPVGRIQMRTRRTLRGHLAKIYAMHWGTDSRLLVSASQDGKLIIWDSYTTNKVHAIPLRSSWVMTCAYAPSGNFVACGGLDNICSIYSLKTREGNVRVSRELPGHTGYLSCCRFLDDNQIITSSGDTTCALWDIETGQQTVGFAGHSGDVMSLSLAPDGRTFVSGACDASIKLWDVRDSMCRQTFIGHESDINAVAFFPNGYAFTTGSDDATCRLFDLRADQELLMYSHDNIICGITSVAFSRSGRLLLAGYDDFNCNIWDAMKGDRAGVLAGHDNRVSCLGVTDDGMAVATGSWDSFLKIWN
# UniProt O94925: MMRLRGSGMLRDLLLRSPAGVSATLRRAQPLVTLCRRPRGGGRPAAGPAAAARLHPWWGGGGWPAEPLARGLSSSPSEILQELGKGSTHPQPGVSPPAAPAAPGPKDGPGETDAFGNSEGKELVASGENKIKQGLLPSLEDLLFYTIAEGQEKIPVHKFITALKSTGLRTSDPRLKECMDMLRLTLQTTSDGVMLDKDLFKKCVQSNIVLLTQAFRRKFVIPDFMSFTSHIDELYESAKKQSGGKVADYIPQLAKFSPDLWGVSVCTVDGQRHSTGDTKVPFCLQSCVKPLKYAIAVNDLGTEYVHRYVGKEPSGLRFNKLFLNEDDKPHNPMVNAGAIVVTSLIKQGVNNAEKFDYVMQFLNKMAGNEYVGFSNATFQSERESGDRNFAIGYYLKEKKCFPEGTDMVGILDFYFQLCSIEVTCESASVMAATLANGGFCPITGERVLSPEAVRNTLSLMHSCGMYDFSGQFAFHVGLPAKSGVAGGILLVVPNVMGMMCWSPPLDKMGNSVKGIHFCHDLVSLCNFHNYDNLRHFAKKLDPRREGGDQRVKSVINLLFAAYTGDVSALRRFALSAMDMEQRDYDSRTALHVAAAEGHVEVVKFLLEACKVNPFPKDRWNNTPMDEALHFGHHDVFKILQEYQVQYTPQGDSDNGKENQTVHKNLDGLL
# UniProt Q9Y248: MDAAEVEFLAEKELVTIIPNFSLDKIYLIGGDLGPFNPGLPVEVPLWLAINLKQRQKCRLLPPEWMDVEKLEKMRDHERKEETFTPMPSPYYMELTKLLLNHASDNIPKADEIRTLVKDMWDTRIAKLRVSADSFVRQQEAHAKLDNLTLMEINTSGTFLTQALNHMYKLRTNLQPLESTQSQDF
# UniProt O14653: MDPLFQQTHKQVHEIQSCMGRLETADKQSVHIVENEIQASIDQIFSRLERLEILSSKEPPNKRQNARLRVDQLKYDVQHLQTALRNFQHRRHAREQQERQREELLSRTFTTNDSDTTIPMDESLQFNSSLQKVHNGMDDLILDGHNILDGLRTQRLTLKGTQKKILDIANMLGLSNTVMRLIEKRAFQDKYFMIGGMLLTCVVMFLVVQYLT
# UniProt Q9Y2X7: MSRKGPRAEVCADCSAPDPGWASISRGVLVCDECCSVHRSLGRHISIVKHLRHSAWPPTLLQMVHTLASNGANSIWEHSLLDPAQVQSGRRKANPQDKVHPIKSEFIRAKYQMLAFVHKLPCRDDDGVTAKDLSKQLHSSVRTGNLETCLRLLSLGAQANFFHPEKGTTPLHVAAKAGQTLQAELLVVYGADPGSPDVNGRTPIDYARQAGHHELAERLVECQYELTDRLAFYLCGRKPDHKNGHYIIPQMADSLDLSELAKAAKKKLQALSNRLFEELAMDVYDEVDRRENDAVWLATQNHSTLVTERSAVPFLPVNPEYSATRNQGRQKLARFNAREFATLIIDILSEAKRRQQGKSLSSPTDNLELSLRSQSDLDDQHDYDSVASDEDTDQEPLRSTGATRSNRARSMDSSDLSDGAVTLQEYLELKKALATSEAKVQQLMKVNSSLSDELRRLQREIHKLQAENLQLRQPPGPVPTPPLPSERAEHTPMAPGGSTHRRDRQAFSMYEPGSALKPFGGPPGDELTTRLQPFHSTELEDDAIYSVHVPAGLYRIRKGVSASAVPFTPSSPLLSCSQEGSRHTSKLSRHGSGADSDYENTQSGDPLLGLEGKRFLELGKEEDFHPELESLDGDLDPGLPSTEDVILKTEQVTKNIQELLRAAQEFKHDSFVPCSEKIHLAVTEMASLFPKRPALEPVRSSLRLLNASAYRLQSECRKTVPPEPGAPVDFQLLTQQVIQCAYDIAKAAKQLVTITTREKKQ
# UniProt P15104, whole entry, looked up: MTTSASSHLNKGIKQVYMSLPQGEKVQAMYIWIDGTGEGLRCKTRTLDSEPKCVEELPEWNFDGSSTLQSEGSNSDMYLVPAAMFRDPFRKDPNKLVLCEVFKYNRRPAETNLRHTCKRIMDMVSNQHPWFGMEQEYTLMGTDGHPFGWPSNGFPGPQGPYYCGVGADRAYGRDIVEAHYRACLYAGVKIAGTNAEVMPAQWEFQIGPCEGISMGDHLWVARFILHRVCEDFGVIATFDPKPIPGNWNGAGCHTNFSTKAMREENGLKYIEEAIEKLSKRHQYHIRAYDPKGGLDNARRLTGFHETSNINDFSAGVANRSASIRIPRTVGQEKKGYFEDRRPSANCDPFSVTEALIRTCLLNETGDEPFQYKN
# UniProt O15228: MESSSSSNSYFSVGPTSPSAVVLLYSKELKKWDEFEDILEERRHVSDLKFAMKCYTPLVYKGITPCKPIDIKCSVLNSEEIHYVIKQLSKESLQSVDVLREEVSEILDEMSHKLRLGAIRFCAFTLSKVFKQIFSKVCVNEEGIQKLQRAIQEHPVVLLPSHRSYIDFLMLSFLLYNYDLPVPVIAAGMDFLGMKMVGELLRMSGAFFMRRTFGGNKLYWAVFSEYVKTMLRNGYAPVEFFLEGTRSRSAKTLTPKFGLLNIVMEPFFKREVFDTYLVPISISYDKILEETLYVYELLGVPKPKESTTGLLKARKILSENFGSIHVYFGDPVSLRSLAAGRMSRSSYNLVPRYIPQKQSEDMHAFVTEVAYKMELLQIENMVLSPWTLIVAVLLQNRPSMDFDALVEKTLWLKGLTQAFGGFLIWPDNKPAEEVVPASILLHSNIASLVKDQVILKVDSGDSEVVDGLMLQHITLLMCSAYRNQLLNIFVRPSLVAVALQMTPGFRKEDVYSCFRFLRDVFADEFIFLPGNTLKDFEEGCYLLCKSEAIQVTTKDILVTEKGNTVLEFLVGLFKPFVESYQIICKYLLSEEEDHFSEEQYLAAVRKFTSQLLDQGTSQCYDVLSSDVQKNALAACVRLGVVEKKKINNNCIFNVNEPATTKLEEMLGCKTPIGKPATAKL
# UniProt Q92917: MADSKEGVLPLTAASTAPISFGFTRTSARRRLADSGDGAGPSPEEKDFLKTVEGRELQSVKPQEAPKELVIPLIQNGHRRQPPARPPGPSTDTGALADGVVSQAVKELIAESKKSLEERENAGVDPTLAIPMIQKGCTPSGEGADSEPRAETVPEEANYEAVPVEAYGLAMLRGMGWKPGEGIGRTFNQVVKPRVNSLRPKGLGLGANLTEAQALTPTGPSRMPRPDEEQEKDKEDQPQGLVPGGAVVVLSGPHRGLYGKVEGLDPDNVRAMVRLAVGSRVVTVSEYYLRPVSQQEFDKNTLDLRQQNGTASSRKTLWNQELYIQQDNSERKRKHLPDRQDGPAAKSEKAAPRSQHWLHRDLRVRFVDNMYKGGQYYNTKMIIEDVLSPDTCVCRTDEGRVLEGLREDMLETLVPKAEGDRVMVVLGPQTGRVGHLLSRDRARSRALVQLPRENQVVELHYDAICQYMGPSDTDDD
# UniProt Q9Y692: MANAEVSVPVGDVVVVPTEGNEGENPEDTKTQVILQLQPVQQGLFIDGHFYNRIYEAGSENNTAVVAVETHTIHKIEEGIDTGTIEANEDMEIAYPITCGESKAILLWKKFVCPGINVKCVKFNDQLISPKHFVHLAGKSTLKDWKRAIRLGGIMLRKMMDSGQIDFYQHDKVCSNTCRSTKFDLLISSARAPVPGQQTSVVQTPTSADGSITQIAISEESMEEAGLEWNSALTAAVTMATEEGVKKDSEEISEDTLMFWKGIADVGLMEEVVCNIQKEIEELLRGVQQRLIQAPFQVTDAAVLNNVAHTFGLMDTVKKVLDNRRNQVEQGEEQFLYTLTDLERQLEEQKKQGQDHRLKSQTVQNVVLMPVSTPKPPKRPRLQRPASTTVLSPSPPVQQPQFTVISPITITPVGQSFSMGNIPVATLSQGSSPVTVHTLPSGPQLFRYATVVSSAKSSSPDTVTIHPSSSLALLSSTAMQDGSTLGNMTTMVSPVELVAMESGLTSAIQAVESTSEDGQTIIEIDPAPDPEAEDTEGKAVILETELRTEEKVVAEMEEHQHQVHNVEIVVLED
# UniProt Q9H4G4: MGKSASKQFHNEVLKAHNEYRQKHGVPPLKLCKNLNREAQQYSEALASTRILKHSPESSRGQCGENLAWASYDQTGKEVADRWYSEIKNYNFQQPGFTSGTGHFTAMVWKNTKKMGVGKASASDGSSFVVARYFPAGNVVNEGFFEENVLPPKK
# Some of the results follow.
# How the values were obtained:
# Experiment in all cases: log2 fold change, soluble protein after heating vs DMSO (PISA); higher = thermal stabilisation; K562 cells, 10 uM, 30 min; active = over 0.2 and 3.5 SD of the protein, either way, in both replicates (recomputed)
# [1] = compound: CS(=O)(=O)c1ccc(-c2cnc(N)c(C(=O)Nc3ccccc3)n2)cc1
# Summary of the method: (§1)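 K562 cells (2×10^6 cells/mL) were treated with 10 μM compound for 30 min, and aliquots were heated for 3 min over 48°C-58°C. Pooled aliquots were extracted in PBS with 0.5% NP-40 at 4°C, and the supernatant after 21,000xg for 90 min was measured by TMTpro 16plex LC-MS/MS with channel sums equalised. Reported thermal stability, relative to control samples and from duplicates, is a log2 fold change.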
# crizotinib = compound: C[C@@H](Oc1cc(-c2cnn(C3CCNCC3)c2)cnc1N)c1c(Cl)ccc(F)c1Cl [crizotinib]
# Summary of the method: as §1
# [2] = compound: C[C@@H]1COCCN1C2=NC(=NC(=C2)C3(CC3)S(=O)(=O)C)C4=C5C=CNC5=CC=C4
# Summary of the method: as §1
# [3] = compound: C[C@H](C1=CC=C(C=C1)C(=O)NC2=C3C=CNC3=NC=C2)N
# Summary of the method: as §1
# gandotinib = compound: Cc1cc(Nc2cc(CN3CCOCC3)c3nc(C)c(Cc4ccc(Cl)cc4F)n3n2)n[nH]1 [gandotinib]
# Summary of the method: as §1
# [4] = compound: Cc1cc(SCc2sc(-c3ccc(C(F)(F)F)cc3)nc2C)ccc1OCC(=O)O
# Summary of the method: as §1
# doramapimod = compound: Cc1ccc(-n2nc(C(C)(C)C)cc2NC(=O)Nc2ccc(OCCN3CCOCC3)c3ccccc23)cc1 [doramapimod]
# Summary of the method: as §1
# ispinesib = compound: Cc1ccc(C(=O)N(CCCN)[C@@H](c2nc3cc(Cl)ccc3c(=O)n2Cc2ccccc2)C(C)C)cc1 [ispinesib]
# Summary of the method: as §1
# duvelisib = compound: C[C@H](Nc1ncnc2nc[nH]c12)c1cc2cccc(Cl)c2c(=O)n1-c1ccccc1 [duvelisib]
# Summary of the method: as §1
# tozasertib = compound: Cc1cc(Nc2cc(N3CCN(C)CC3)nc(Sc3ccc(NC(=O)C4CC4)cc3)n2)n[nH]1 [tozasertib]
# Summary of the method: as §1
Target,log2 fold change [1],log2 fold change (crizotinib),log2 fold change [2],log2 fold change [3],log2 fold change (gandotinib),log2 fold change [4],log2 fold change (doramapimod),log2 fold change (ispinesib),log2 fold change (duvelisib),log2 fold change (tozasertib)
GNAS (UniProt Q5JWF2),inactive: 0.049,inactive: 0.047,inactive: 0.039,inactive: -0.031,inactive: -0.034,inactive: 0.003,inactive: 0.007,inactive: -0.141,–,–
GMEB2 (UniProt Q9UKD1),inactive: -0.012,inactive: 0.041,inactive: -0.063,inactive: -0.09,inactive: -0.001,inactive: 0.009,inactive: 0.053,inactive: 0.071,–,–
GLB1 (UniProt P16278),inactive: 0.024,active: -0.221,inactive: -0.074,inactive: 0.007,inactive: 0,inactive: -0.004,inactive: 0.013,active: -0.255,–,–
GPN2 (UniProt Q9H9Y4),inactive: -0.097,inactive: 0.071,–,inactive: 0.02,inactive: -0.034,inactive: -0.026,inactive: 0.018,inactive: 0.075,inactive: 0.151,inactive: -0.033
GLUD2 (UniProt P49448),inactive: 0.102,inactive: 0.003,inactive: 0.011,inactive: -0.062,inactive: 0.064,inactive: 0.016,inactive: 0.041,inactive: 0,–,–
GNB2 (UniProt P62879),inactive: 0.084,inactive: 0.134,inactive: 0.024,inactive: -0.13,inactive: -0.095,inactive: 0,inactive: 0.009,inactive: 0.062,–,–
GREB1 (UniProt Q4ZG55),inactive: 0.121,inactive: 0.163,inactive: -0.046,inactive: 0.12,–,–,inactive: -0.007,–,–,–
GLS isoform 3 (UniProt O94925),inactive: 0.038,inactive: 0.021,inactive: 0.256,inactive: -0.007,inactive: -0.264,inactive: 0.064,inactive: 0.023,inactive: 0.219,–,–
GOLGA7B (UniProt Q2TAP0),inactive: 0.052,inactive: 0.088,–,inactive: -0.08,–,inactive: -0.007,inactive: 0,inactive: -0.007,inactive: 0.058,inactive: -0.061
GNG5 (UniProt P63218),inactive: 0.014,inactive: 0.094,inactive: 0.207,inactive: -0.13,inactive: 0.055,inactive: -0.071,inactive: 0.008,inactive: 0.216,–,–
GINS2 (UniProt Q9Y248),inactive: -0.066,inactive: -0.036,inactive: -0.046,inactive: -0.15,inactive: 0.004,inactive: 0.247,inactive: 0.026,inactive: 0.167,–,–
GNL1 (UniProt P36915),inactive: 0.051,inactive: -0.014,inactive: 0.162,inactive: -0.011,inactive: 0.028,inactive: 0.052,inactive: -0.019,inactive: 0.087,–,–
GOSR2 isoform 2 (UniProt O14653),inactive: -0.052,inactive: -0.085,–,inactive: -0.124,inactive: -0.075,inactive: 0.025,inactive: -0.061,inactive: 0.024,inactive: 0.099,inactive: -0.006
GLCE (UniProt O94923),inactive: -0.012,inactive: 0.116,–,inactive: 0.037,–,–,inactive: 0.047,–,–,–
GLRX3 (UniProt O76003),inactive: 0.03,inactive: 0.098,inactive: 0.06,inactive: -0.068,inactive: -0.094,inactive: 0.041,inactive: -0.075,inactive: 0.068,–,–
GIT1 isoform 3 (UniProt Q9Y2X7),inactive: -0.106,inactive: -0.372,inactive: 0.014,inactive: 0.181,–,inactive: -0.059,inactive: 0.029,inactive: -0.23,inactive: 0,–

# Laid out differently: results already given.
Target | log2 fold change [1] | log2 fold change (crizotinib) | log2 fold change [2] | log2 fold change [3] | log2 fold change (gandotinib) | log2 fold change [4] | log2 fold change (doramapimod) | log2 fold change (ispinesib) | log2 fold change (duvelisib) | log2 fold change (tozasertib)
GNAS (UniProt Q5JWF2) | inactive: 0.049 | inactive: 0.047 | inactive: 0.039 | inactive: -0.031 | inactive: -0.034 | inactive: 0.003 | inactive: 0.007 | inactive: -0.141 | – | –
GOLGA7B (UniProt Q2TAP0) | inactive: 0.052 | inactive: 0.088 | – | inactive: -0.08 | – | inactive: -0.007 | inactive: 0 | inactive: -0.007 | inactive: 0.058 | inactive: -0.061

# The results go on.

Target,log2 fold change [1],log2 fold change (crizotinib),log2 fold change [2],log2 fold change [3],log2 fold change (gandotinib),log2 fold change [4],log2 fold change (doramapimod),log2 fold change (ispinesib),log2 fold change (duvelisib),log2 fold change (tozasertib)
GNAI3 (UniProt P08754),inactive: 0.121,inactive: 0.103,inactive: -0.122,inactive: 0.003,inactive: 0.039,inactive: -0.014,inactive: 0.036,inactive: -0.008,–,–
GOPC (UniProt Q9HD26),inactive: 0.218,inactive: 0.293,inactive: -0.043,inactive: 0.294,inactive: 0.101,inactive: 0.091,inactive: 0.061,inactive: 0.038,–,–
GLUL (UniProt P15104),inactive: -0.07,inactive: 0.008,active: -0.267,inactive: 0.062,inactive: -0.014,inactive: -0.047,inactive: -0.126,inactive: 0.005,–,–
GNPAT (UniProt O15228),inactive: 0.029,inactive: -0.071,inactive: 0.087,inactive: -0.088,inactive: -0.076,inactive: 0.06,inactive: 0.034,inactive: -0.006,–,–
GPKOW (UniProt Q92917),inactive: 0.004,inactive: -0.147,inactive: 0.104,inactive: -0.004,inactive: -0.094,inactive: 0.195,inactive: -0.03,inactive: -0.013,–,–
GNS (UniProt P15586),inactive: 0.001,inactive: -0.115,inactive: 0.046,inactive: -0.032,inactive: 0.061,inactive: -0.028,inactive: 0.016,inactive: -0.021,–,–
GOLGB1 isoform 2 (UniProt Q14789),inactive: -0.135,inactive: -0.012,active: -0.314,inactive: 0.19,inactive: -0.031,inactive: -0.025,inactive: 0.056,inactive: 0.012,–,–
GPAM (UniProt Q9HCL2),inactive: 0.006,inactive: 0.144,inactive: -0.001,–,inactive: 0.123,–,inactive: 0.253,inactive: -0.083,–,inactive: 0.107
GOLGA6B (UniProt A6NDN3),inactive: -0.003,inactive: 0.05,inactive: 0.036,–,inactive: 0.404,–,inactive: -0.139,–,–,–
GLYR1 (UniProt Q49A26),inactive: 0.033,inactive: 0.008,inactive: -0.125,inactive: 0.075,inactive: 0.016,inactive: -0.06,inactive: 0.117,inactive: -0.132,–,–
GPX4 (UniProt P36969),inactive: 0.014,inactive: 0.079,inactive: 0.011,inactive: -0.072,inactive: 0.013,inactive: -0.017,inactive: -0.039,inactive: 0.213,–,–
GSK3A (UniProt P49840),active: 0.322,inactive: 0.129,inactive: 0.053,inactive: 0.015,inactive: 0.201,inactive: 0.015,inactive: -0.039,inactive: 0.072,–,–
GMEB1 (UniProt Q9Y692),inactive: -0.036,inactive: 0.02,inactive: 0.04,inactive: -0.045,inactive: -0.11,inactive: 0.049,inactive: -0.038,inactive: 0.01,–,–
GLS (UniProt O94925),inactive: 0.033,inactive: 0.05,inactive: 0.209,inactive: -0.049,inactive: -0.17,inactive: 0.054,inactive: -0.105,inactive: 0.118,–,–
GLCCI1 (UniProt Q86VQ1),inactive: -0.008,inactive: 0.045,inactive: 0.024,inactive: 0.026,inactive: 0.079,inactive: 0.044,inactive: -0.032,inactive: 0.239,–,–
GLIPR2 (UniProt Q9H4G4),inactive: 0.034,inactive: -0.243,inactive: -0.018,inactive: -0.064,inactive: 0.157,inactive: 0.007,inactive: -0.01,active: -0.459,–,–
